One experiment concerns the target T1, GFP-SUV39H1 (UniProt O54864).
T1 sequence: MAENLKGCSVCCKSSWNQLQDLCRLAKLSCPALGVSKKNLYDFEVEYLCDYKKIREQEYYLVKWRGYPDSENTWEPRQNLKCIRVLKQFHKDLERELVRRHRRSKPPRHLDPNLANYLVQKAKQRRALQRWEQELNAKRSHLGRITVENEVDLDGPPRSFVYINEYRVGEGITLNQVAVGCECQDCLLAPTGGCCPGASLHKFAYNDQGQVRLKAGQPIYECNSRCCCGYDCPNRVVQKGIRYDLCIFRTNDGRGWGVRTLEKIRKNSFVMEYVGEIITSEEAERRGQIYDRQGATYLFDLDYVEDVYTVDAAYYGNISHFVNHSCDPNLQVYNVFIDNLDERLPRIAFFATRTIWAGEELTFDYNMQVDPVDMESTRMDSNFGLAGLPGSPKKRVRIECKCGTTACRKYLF
As to the kind of experiment: co-IP; GFP-trap Dynabeads immunoprecipitation from Suv39h dn mESCs expressing GFP-SUV39H1 or GFP-SUV39H2; immunoblot with GFP and FOXD3 antibodies. (In western blotting, separated proteins are transferred to a membrane and probed.)

By UniProt entry, the sequences of proteins in these tests, tags left out.
UniProt Q9EQQ0: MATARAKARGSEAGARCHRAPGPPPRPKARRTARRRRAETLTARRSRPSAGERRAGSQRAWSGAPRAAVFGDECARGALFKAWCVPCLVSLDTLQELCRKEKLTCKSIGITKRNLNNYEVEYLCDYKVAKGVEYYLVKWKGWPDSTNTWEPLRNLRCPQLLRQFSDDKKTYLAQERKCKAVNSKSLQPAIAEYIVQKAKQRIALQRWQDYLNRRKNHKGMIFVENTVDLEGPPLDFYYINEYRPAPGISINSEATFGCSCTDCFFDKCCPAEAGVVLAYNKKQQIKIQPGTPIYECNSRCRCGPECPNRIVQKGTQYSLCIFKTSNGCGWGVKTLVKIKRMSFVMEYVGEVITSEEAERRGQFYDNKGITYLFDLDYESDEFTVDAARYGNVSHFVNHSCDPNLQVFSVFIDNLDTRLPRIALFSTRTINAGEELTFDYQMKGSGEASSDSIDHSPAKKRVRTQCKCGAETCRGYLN

A further experiment deals with GFP-SUV39H2 (UniProt Q9EQQ0). Described as above.
Experiment [1] concerns the target T2, GFP-FOXD3 (wild-type, full-length) (mouse) (UniProt Q61060).
T2 sequence: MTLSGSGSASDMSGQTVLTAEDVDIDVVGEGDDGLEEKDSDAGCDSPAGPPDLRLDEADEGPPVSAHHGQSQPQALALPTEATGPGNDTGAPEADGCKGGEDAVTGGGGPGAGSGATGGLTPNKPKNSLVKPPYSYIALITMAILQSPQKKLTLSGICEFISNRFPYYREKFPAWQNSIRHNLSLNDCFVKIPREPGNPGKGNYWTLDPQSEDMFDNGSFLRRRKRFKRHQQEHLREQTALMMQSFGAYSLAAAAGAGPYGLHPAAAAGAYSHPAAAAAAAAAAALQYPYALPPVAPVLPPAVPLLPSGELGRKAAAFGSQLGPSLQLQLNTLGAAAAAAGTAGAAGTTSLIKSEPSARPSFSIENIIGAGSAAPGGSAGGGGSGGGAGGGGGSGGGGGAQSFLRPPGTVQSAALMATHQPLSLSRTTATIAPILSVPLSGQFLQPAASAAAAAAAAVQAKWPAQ
In words: co-IP; GFP-trap Dynabeads immunoprecipitation from Foxd3 cKO mESCs expressing GFP-FOXD3; immunoblot with SUV39H1, SETDB1 and GFP antibodies.

No constants are given. Whether binding was seen depends on the method and setting. Binding seen in cells or lysates may run through a third protein. Some entries that bind do so weakly or less than the wild type. For part of these data: Sequences can lack the tags named with a protein.

B1: FOXD3 (endogenous, in Suv39h dn mESCs) (protein, UniProt Q61060 1-465)
chain: MTLSGSGSASDMSGQTVLTAEDVDIDVVGEGDDGLEEKDSDAGCDSPAGPPDLRLDEADEGPPVSAHHGQSQPQALALPTEATGPGNDTGAPEADGCKGGEDAVTGGGGPGAGSGATGGLTPNKPKNSLVKPPYSYIALITMAILQSPQKKLTLSGICEFISNRFPYYREKFPAWQNSIRHNLSLNDCFVKIPREPGNPGKGNYWTLDPQSEDMFDNGSFLRRRKRFKRHQQEHLREQTALMMQSFGAYSLAAAAGAGPYGLHPAAAAGAYSHPAAAAAAAAAAALQYPYALPPVAPVLPPAVPLLPSGELGRKAAAFGSQLGPSLQLQLNTLGAAAAAAGTAGAAGTTSLIKSEPSARPSFSIENIIGAGSAAPGGSAGGGGSGGGAGGGGGSGGGGGAQSFLRPPGTVQSAALMATHQPLSLSRTTATIAPILSVPLSGQFLQPAASAAAAAAAAVQAKWPAQ
Turning to B1, the binding result with GFP-SUV39H1 and in the experiment with GFP-SUV39H2 was “binds” in each case.

B2: SUV39H1 (endogenous, in Foxd3 cKO mESCs) (enzyme, UniProt O54864 1-412)
chain: MAENLKGCSVCCKSSWNQLQDLCRLAKLSCPALGVSKKNLYDFEVEYLCDYKKIREQEYYLVKWRGYPDSENTWEPRQNLKCIRVLKQFHKDLERELVRRHRRSKPPRHLDPNLANYLVQKAKQRRALQRWEQELNAKRSHLGRITVENEVDLDGPPRSFVYINEYRVGEGITLNQVAVGCECQDCLLAPTGGCCPGASLHKFAYNDQGQVRLKAGQPIYECNSRCCCGYDCPNRVVQKGIRYDLCIFRTNDGRGWGVRTLEKIRKNSFVMEYVGEIITSEEAERRGQIYDRQGATYLFDLDYVEDVYTVDAAYYGNISHFVNHSCDPNLQVYNVFIDNLDERLPRIAFFATRTIWAGEELTFDYNMQVDPVDMESTRMDSNFGLAGLPGSPKKRVRIECKCGTTACRKYLF
For B2, the binding result in experiment [1] is listed as “binds”.

(Values after article PMC8647145, “Foxd3 controls heterochromatin‐mediated repression of repeat elements and 2‐cell state transcription”.)
